Drawing on PMC8917353, this text covers binding for three substances.

Sequences of proteins named here, by UniProt entry; tags and fusion partners are left off.
UniProt P62834: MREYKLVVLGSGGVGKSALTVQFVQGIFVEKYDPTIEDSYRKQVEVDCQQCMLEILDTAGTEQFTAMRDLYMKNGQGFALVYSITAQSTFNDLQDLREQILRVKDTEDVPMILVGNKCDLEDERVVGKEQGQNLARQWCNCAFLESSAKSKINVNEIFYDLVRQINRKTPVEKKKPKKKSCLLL
UniProt Q9BSQ5: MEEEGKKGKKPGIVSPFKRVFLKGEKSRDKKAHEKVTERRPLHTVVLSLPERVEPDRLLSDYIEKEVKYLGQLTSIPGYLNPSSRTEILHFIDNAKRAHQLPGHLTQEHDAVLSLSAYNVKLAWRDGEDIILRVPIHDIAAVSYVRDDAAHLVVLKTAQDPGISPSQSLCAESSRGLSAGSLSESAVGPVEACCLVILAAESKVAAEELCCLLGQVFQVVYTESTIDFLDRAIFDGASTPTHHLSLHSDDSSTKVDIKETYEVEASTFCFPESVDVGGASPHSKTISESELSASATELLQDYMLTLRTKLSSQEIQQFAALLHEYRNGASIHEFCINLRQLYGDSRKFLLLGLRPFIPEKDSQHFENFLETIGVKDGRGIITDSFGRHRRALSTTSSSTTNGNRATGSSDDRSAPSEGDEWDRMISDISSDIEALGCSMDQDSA

Numbering of substitutions follows the chain as printed. These are yes or no findings as the source states them, for the method shown. Binding seen in cells or lysates may run through a third protein. Some results given as binding are weak or reduced against the parent protein; the word gives no strength.

Test [1] concerns the target T1, mCherry-KRIT1 192APAA195 R452E (UniProt O00522).
T1 sequence: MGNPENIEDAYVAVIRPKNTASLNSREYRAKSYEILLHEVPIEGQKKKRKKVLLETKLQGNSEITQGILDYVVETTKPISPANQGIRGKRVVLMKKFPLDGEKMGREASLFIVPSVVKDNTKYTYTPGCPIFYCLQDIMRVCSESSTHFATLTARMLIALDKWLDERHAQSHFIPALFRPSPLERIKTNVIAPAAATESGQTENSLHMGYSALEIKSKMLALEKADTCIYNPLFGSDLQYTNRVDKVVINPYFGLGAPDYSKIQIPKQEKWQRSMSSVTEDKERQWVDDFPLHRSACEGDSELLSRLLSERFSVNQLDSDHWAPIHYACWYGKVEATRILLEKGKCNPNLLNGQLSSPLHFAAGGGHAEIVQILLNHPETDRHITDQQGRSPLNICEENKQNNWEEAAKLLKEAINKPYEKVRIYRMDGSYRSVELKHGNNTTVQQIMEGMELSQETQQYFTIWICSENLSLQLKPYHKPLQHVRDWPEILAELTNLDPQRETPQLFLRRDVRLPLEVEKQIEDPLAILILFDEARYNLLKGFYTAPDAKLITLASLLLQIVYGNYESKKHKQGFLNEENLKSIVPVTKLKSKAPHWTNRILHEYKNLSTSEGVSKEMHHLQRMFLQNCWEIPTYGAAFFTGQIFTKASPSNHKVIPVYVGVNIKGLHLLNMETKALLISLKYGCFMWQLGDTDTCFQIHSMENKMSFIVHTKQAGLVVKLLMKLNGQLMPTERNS
Kind of test: co-IP; HEK293A co-transfected with mCherry-KRIT1 construct and CCM2-Myc/His; 300 µg lysate, anti-mCherry on Protein G agarose, overnight 4°C; blot for Myc.

Test [2] deals with T2, membrane-targeted mCherry-KRIT1 192APAA195 R452E with the Rap1 polybasic region and CAAX box (…) at the C-terminus (UniProt O00522).
T2 sequence (chain, C-terminal geranylgeranylation (GG) at the CAAX box): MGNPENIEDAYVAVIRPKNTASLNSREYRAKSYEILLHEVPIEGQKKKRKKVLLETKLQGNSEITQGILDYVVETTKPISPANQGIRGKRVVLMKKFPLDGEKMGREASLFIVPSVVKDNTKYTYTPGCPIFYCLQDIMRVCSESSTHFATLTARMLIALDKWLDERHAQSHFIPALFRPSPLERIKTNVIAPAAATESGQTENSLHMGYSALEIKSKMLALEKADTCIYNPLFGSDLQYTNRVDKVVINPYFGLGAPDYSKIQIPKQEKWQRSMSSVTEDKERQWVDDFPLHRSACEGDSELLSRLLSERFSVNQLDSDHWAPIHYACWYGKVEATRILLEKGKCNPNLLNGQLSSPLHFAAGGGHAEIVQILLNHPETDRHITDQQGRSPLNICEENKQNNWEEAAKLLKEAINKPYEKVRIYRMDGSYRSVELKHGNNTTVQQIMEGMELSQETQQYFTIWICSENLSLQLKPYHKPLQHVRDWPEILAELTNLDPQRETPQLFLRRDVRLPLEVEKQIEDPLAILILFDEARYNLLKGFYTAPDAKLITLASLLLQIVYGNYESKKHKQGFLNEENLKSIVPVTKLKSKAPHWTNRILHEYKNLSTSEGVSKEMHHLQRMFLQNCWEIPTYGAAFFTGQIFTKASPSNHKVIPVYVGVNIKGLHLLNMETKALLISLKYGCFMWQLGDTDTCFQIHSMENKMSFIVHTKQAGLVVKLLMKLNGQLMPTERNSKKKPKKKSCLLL
Described as above.

Test [3] has as its target T3, mCherry-KRIT1 192NPAY195 to 192APAA195 (UniProt O00522).
T3 sequence: T1 sequence with E452R
Described as above.

Test [4] deals with mCherry-tagged KRIT1 (WT) (UniProt O00522). The test is described as above.
Test [5] concerns the target GST-Rap1a (UniProt P62834). Kind of test: pull-down; 10 µg GST-Rap1a on GSH-Sepharose beads loaded with 1 mM GTPγS; 300 µg HEK293A lysate with mCherry-KRIT1 constructs, 5 mM DTT, 4°C overnight; washes in lysis buffer with 250 mM NaCl and 5 mM DTT; blot for KRIT1; only the target purified.

Consider “CCM2-Myc/His (from UniProt Q9BSQ5 1-444)”, for which the binding entry in test [1], in test [2], in test [3] and in test [4] was “binds” in each case.
Take “mCherry-tagged KRIT1 (WT) (from UniProt O00522 1-736)”: the binding entry in test [5] is given as “binds”.
On the same count and under the same terms, under “mCherry-KRIT1-R452E (from UniProt O00522 1-736)” stands “binds weakly”.
